Laboratory results published in PMC8864165, “Functional Effects of ARV-1502 Analogs Against Bacterial Hsp70 and Implications for Antimicrobial Activity” (Frontiers in Chemistry, 2022).
Results are given in words; binding and its absence hold for the method and conditions named.

By UniProt entry, the sequences of proteins in these tests, tags left out. Where a name states a change or a piece, a line headed by the entry shows the natural chain unless it says otherwise.
UniProt P0A6Y8: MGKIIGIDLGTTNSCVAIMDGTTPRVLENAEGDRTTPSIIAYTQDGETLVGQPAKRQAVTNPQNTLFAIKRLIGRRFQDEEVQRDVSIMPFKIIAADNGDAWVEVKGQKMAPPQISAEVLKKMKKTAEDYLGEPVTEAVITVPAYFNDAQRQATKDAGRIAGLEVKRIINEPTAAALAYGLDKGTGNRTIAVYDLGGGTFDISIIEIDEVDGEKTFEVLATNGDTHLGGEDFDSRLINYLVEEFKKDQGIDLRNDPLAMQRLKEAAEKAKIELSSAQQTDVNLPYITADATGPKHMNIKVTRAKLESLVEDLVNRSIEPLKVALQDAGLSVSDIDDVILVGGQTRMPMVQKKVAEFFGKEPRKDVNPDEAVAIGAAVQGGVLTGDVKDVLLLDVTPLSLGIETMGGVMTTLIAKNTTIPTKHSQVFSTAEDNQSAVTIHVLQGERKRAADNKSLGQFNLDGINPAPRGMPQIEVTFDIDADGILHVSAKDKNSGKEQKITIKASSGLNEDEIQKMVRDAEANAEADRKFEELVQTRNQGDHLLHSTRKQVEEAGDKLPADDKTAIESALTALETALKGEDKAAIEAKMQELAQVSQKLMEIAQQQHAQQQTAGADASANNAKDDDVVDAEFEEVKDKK

Biological target: E. coli DnaK (Escherichia coli) (UniProt P0A6Y8)
Assay: fluorescence polarisation; competition screen at one concentration: unlabeled peptide 5 µmol/L with 5 µmol/L E. coli DnaK, or 35 µmol/L with 16 µmol/L S. aureus DnaK, 90 min 28°C, then Cf-ARV-1502 (10 µL of 80 nmol/L), 90 min 28°C; duplicates; FP normalized to ARV-1502; both purified

For RPDKPRPDKPRPRPPRPVR (N-terminal Chex (1-amino-cyclohexane carboxylic acid); C-terminal amide) [peptide 108], the binding was “no binding”.

RPDKPRPKKPRPRPPRPVR (N-terminal Chex (1-amino-cyclohexane carboxylic acid); C-terminal amide) [peptide 122] was tested, and the binding was “no binding”.
